Data reported in publication PMC3522597.
No constants are given. Whether binding was seen depends on the method and setting. In cells and extracts the contact can be indirect. Some entries that bind do so weakly or less than the wild type.

Target: T1, tetraspanin CD81 (human (endogenous in Du145)) (UniProt P60033)
T1 sequence: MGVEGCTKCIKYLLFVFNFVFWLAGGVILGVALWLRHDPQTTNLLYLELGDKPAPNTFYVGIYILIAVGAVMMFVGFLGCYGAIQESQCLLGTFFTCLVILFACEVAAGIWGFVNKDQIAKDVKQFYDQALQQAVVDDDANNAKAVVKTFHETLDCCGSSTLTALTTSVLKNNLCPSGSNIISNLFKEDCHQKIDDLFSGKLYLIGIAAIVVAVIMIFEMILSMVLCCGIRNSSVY
Test: co-IP; Du145-CD82 cells grown dense (confluent) or sparse (50% confluence), lysed in 1% Brij 98; precipitated with CD81 mAb M38 or control IgG, blotted with CD82 mAb TS82b

binding: binds
B1: Tetraspanin KAI1/CD82 (protein, UniProt P27701 1-267)
chain: MGSACIKVTKYFLFLFNLIFFILGAVILGFGVWILADKSSFISVLQTSSSSLRMGAYVFIGVGAVTMLMGFLGCIGAVNEVRCLLGLYFAFLLLILIAQVTAGALFYFNMGKLKQEMGGIVTELIRDYNSSREDSLQDAWDYVQAQVKCCGWVSFYNWTDNAELMNRPEVTYPCSCEVKGEEDNSLSVRKGFCEAPGNRTQSGNHPEDWPVYQEGCMEKVQAWLQENLGIILGVGVGVAIIELLGMVLSICLCRHVHSEDYSKVPKY
